# Data source: PubChem BioAssay AID686937 (Drosophila RNAi Screening Center, 2013)
# Screen: 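Knock-downs that reduce output of a secreted reporter enzyme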 (primary screen)
# Cell system: Drosophila S2 cells expressing secreted horseradish peroxidase
# Reagent: long dsRNA against Drosophila genes
# Duration: about 5.5 days (5 days dsRNA, then 12 h reporter induction)
# Treatment: reporter expression induced after 5 days of dsRNA, read 12 h later; inducer not stated
# Measured: 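After 5 days of dsRNA and 12 h of reporter induction, medium peroxidase read by chemiluminescence and scored as per-plate z-score; higher values mean more reporter released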
# Direction: z-score: higher = more reporter secreted into medium
# The screen tested about 23,000 reagents; below is a random part of those with a known target gene and a result. 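Reduced-secretion tags in replicate 1 do not always agree with the z-scores; no criterion for assigning the tags was given.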 The numbers tell different reagents against one gene apart. A plus sign joins genes that one reagent is predicted to hit. Not all columns of the deposit are shown. Reagent sequences are not shown. Not given: the amount of reagent.
predicted target,reagent no.,"z-score, replicate 1"
CG33217,1,1.14
CG9519,1,0.44
Polr3A,1,-0.33
gammaCOP,1,-5.77
CG3071,1,0.12
CG32260,1,0.16
ms(3)76Cc,1,0.45
ms(3)76Cc,2,-0.87
bchs,1,0.05
CG31681,1,0.51
RabX1,1,0.01
asRNA:CR43469 + Balat,1,0.24
Sdhaf3,1,-0.82
lncRNA:sphinx + ATPsynF,1,-0.78
CG9673,1,0.25
Polr3G,1,0.28
gw,1,-2.24
gw,2,-1.78
CG11125,1,0.16
CG14695,1,0.16
CG3857,1,0.38
Tret1-2,1,0.2
yellow-h,1,0.36
Nle,1,0.21
Tret1-1,1,0.17
Tret1-1,2,-0.16
rudhira,1,-2.23
rudhira,2,0.34
Coop,1,-0.51
PolrMT,1,-0.04
CG10366,1,-0.03
shams,1,0.09
CG32793,1,0.3
CG32793,2,0.28
CG9890,1,0.09
Tab2,1,-0.03
mRpS30,1,0.19
CAP,1,-0.19
CAP,2,0.24
CAP,3,0.16
CAP,4,0.32
CAP,5,0.23
Dop2R,1,0.04
Dop2R,2,0.33
Spn88Ea,1,-0.38
CG11698,1,-0.91
CG9577,1,0.59
CG1368,1,0.49
fau,1,-1.33
fau,2,0.35
fau,3,0.35
fau,4,0.22
fau,5,0.27
fau,6,-0.87
CG11791,1,0.08
CG17982,1,0.32
CG43897,1,0.01
CG43897,2,-1.51
CG43897,3,0.4
CG43897,4,1.52
CG31823,1,0.11
Osi3,1,0.15
Ogg1,1,0.16
Rme-8,1,-0.02
CG15506,1,0.35
CG33752,1,0.33
sra,1,0.41
CG7542,1,0.16
Mdr65,1,0.23
Lgr4,1,0.09
Lgr4,2,0.43
Lgr4,3,0.32
apt,1,0.61
CG34450,1,0.44
ppk18,1,0.4
ppk18,2,0.13
rib,1,0.58
Patsas,1,0.45
CG5953,1,0.09
CG5953,2,-0.28
CG13064,1,0.31
ClC-c,1,0.52

Records listed so far whose target name begins with A or a (2):
predicted target,reagent no.,"z-score, replicate 1"
asRNA:CR43469 + Balat,1,0.24
apt,1,0.61
